Data from article PMC7311514.
Results are given in words; binding and its absence hold for the method and conditions named. In cells and extracts the contact can be indirect. Some entries that bind do so weakly or less than the wild type.

Chains of the proteins cited; added tags and fusions are not shown. Residues count along the entry.
UniProt P35968, residues 20-1356: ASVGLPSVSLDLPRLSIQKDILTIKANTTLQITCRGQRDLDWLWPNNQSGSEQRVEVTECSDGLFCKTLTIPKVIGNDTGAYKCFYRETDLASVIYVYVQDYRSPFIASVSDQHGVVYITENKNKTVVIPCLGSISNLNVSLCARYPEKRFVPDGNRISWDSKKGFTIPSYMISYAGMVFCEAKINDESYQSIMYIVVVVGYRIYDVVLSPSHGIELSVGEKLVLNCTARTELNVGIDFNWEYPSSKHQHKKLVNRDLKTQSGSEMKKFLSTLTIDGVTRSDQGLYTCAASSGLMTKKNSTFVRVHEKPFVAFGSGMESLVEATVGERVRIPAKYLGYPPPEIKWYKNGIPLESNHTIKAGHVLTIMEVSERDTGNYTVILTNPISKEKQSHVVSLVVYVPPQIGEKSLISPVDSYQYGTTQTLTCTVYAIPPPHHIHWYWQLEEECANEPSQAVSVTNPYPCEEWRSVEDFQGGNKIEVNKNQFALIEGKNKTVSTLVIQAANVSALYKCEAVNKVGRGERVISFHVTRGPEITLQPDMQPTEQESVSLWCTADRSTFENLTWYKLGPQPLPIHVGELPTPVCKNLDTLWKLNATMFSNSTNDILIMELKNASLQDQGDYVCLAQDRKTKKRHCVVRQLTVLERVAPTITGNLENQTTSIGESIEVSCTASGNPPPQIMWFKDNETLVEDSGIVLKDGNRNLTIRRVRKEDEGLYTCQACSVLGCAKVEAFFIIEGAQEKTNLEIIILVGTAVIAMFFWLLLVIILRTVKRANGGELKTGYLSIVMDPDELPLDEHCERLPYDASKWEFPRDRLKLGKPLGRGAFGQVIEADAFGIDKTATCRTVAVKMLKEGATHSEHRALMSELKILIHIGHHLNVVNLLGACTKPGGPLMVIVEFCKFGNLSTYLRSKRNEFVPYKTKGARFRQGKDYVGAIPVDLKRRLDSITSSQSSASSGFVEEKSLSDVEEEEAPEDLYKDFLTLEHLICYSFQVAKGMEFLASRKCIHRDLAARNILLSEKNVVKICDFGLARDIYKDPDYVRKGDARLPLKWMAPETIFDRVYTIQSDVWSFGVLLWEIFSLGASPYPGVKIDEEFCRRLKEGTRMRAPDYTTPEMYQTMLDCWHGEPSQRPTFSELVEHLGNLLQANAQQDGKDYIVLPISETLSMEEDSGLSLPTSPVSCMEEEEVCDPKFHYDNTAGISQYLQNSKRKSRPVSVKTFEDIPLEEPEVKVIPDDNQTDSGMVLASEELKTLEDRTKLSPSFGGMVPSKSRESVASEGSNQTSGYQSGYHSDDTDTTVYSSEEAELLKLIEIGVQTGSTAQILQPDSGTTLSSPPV
UniProt O14786, residues 22-923: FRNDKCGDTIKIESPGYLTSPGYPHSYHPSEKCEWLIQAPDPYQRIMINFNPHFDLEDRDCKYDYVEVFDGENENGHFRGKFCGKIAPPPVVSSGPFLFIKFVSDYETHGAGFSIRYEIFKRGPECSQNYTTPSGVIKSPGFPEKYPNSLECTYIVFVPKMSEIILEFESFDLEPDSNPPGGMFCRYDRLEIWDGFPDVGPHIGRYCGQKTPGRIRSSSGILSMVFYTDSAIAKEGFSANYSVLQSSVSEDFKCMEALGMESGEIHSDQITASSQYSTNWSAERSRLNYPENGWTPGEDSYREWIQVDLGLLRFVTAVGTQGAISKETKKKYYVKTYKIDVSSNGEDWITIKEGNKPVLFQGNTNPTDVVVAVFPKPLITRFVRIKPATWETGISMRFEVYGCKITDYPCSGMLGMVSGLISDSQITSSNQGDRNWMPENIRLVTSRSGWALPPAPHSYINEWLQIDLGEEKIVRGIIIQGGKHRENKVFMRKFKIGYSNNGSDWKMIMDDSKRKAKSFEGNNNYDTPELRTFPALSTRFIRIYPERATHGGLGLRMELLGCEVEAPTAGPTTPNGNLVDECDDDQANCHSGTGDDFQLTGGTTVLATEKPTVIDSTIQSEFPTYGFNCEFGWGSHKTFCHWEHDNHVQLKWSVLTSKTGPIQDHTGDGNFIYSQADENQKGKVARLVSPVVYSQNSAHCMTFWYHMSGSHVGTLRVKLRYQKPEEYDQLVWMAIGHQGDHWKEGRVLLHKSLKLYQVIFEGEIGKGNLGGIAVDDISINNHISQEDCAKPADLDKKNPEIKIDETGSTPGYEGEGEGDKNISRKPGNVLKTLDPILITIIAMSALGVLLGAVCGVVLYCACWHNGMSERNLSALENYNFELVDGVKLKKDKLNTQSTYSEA

Assays:
[1] = target: T1, raftlin (endogenous, HUVEC) (human (endogenous in HUVEC)) (UniProt Q14699); experiment: co-IP; HUVEC serum-starved 1 h, stimulated with 40 ng/ml VEGF (VEGF165) for the indicated times, with or without 5 μM SU5416 pre-incubation for 1 h; lysis in 20 mM Tris pH7.5, 137 mM NaCl, 0.5% NP-40, 1 mM EDTA; immunoprecipitation of endogenous raftlin, Nrp1 or VEGFR2 with Protein G beads at 4 °C; western blot
T1 sequence: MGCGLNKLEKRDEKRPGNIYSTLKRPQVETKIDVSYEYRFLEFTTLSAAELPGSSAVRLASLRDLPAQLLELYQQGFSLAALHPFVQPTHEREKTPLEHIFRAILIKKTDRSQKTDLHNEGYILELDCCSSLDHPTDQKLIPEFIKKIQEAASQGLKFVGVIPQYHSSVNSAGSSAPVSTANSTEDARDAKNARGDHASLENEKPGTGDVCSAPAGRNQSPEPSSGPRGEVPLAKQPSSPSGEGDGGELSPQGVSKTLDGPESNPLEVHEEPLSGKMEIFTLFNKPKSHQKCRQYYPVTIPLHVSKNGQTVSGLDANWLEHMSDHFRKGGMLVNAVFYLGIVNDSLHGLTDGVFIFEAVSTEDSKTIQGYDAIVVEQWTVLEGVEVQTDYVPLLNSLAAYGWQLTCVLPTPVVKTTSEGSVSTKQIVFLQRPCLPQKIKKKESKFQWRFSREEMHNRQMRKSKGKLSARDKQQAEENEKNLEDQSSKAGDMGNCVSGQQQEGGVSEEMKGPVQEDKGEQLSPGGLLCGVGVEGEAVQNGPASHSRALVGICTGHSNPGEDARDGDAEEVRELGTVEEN

[2] = target: VEGFR2 (endogenous, HUVEC; mature receptor) (human (endogenous in HUVEC)) (UniProt P35968); experiment: as above

With “neuropilin-1 (endogenous, HUVEC) (from UniProt O14786 22-923) (receptor)” the binding [1] was “binds”.

For “immature VEGFR2 (lower molecular weight receptor, endogenous, HUVEC) (from UniProt P35968 20-1356)”, the binding [1] was “no binding”.

B1: raftlin-2 (endogenous, HUVEC) (protein, UniProt Q52LD8 1-501)
chain: MGCGLRKLEDPDDSSPGKIFSTLKRPQVETKTEFAYEYVLLDFTLQASSNPEVIKINSILDIVTKVENYYLKGYIVGAIHPVIQPVGQRKHLPASYLYRVVLLRLKLSPKNSAAPSGQRRPRLVIEECPLTSEAQTNDAAKELIEKINVAAKRGMKFVGFISQHYSPSKFCNGTNHDGDIESMLHVRHGSDENCRSWNEGTLSGQSSESGIEEELHHESGQYQMEQNGSPTSSKSRKGEASDNKLYTVFNAFDDDSTSWAYQEGILSMKVTRKGSVISTLDADWLELTTFYYKQGLSLIDSFVFWETSKGEHLPKSLEGFFIYEEEGSGVPGSSRKGNDAIVVEQWTVIEGCEIKTDYGPLLHTLAEFGWLLTSVLPTPVLRHDSEGNLATKQIVFLQRPVMWNSAAQTPDKKASRHIKGEDKNKATSRSIGLDTTSSQPAESRHLPEECRLSPSRECWTKEGRLAQHNSFSGFSSSDNVLRELDDGQFDQEDGVTQVTCM
With B1 the binding [2] was “no binding”.
